Data reported in the supplement of paper PMC12819154, “High-throughput peptide-centric local stability assay extends protein–ligand identification to membrane proteins, tissues and bacteria” (Nature Structural & Molecular Biology, 2025).
Some of the results follow. Most values lie at the level of the controls, where differences are scatter.

Sequences of proteins named here, by UniProt entry; tags and fusion partners are left off. A change or cut given only in a name is not applied to a line headed by its entry.
UniProt Q16851: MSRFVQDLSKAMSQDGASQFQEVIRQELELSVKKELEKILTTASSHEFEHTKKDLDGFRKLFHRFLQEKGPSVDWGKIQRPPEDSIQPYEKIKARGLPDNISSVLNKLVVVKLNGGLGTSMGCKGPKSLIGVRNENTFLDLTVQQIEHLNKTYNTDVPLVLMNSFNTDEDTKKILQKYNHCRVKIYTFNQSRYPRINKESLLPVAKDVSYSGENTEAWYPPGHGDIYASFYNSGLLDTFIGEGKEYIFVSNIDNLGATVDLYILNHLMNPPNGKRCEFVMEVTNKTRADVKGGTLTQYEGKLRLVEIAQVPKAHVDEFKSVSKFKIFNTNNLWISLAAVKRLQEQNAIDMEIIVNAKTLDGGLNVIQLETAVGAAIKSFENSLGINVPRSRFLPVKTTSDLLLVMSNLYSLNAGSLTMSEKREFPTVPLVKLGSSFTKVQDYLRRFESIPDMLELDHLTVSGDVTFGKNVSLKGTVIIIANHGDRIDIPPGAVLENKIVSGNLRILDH
UniProt Q15785: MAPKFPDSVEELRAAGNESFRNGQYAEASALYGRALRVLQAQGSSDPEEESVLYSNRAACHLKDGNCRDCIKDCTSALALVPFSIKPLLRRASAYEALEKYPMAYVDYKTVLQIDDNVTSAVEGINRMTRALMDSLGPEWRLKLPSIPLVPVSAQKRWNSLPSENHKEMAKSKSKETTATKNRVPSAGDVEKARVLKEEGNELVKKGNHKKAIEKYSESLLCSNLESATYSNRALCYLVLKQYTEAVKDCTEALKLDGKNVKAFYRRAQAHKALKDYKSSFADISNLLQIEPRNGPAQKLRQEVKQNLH
UniProt Q3ZAQ7: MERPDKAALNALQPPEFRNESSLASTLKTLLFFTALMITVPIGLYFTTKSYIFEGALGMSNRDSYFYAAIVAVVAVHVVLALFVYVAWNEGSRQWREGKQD
UniProt Q2NKX8: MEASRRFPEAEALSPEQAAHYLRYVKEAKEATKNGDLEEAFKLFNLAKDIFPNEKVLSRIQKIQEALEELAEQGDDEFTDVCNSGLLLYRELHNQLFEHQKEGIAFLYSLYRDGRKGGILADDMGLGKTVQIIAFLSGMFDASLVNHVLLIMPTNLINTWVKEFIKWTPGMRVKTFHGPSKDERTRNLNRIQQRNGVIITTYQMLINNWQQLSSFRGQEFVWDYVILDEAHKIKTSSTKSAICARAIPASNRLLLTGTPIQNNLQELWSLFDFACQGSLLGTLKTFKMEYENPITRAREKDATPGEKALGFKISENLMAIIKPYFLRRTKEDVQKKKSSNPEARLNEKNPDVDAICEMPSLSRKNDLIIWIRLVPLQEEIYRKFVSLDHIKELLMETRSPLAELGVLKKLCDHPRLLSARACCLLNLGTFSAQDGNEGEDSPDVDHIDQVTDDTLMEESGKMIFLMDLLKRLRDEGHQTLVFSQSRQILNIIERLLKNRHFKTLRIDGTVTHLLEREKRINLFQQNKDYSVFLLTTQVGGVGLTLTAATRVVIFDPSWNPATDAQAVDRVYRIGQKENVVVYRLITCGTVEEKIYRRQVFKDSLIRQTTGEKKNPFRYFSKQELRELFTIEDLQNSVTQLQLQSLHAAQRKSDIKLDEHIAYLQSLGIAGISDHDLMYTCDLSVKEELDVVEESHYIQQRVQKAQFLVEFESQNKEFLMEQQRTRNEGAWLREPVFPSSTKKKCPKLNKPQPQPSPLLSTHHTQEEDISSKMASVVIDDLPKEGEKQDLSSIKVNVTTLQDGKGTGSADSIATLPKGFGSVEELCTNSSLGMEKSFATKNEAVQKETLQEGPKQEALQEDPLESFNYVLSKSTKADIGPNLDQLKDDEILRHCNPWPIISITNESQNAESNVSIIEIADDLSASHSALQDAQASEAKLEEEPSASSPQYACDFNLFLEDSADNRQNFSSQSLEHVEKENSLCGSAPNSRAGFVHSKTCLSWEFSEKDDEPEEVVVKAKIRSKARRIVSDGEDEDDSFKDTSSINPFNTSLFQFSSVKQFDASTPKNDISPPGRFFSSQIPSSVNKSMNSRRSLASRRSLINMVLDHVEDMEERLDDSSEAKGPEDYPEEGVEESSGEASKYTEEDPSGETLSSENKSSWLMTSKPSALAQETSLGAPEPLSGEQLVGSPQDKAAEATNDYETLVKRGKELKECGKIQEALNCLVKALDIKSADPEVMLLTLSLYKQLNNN
UniProt Q15435: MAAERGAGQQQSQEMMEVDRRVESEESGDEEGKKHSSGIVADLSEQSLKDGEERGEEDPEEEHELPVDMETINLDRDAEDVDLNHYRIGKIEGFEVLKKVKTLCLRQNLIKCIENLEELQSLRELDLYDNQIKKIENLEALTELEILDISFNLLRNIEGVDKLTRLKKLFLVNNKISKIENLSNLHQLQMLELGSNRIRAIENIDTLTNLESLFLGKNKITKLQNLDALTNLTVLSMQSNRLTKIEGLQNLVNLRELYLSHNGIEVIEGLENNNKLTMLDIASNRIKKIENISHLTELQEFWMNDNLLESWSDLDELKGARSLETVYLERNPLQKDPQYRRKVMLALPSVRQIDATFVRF
UniProt Q2VPB7: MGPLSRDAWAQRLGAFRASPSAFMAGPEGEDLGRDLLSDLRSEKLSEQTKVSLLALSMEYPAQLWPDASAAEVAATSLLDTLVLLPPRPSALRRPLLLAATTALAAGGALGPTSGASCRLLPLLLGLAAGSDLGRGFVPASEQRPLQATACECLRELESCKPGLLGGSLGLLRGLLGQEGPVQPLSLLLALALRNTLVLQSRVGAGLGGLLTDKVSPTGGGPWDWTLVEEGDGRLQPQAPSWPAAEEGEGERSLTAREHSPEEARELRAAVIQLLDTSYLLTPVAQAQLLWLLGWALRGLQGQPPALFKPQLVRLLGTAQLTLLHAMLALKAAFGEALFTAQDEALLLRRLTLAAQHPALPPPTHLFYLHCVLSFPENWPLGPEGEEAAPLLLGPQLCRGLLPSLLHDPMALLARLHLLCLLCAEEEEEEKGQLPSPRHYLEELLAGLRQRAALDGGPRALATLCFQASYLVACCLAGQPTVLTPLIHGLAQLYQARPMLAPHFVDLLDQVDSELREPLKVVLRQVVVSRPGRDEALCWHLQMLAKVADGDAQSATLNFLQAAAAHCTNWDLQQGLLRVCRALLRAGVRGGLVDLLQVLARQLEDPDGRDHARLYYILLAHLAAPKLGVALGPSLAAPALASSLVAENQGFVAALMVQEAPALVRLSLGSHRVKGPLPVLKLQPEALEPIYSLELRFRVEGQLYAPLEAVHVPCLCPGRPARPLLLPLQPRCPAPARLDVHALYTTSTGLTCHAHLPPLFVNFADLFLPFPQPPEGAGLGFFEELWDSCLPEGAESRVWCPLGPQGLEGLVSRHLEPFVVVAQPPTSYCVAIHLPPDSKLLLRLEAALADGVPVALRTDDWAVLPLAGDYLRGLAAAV
UniProt Q15269: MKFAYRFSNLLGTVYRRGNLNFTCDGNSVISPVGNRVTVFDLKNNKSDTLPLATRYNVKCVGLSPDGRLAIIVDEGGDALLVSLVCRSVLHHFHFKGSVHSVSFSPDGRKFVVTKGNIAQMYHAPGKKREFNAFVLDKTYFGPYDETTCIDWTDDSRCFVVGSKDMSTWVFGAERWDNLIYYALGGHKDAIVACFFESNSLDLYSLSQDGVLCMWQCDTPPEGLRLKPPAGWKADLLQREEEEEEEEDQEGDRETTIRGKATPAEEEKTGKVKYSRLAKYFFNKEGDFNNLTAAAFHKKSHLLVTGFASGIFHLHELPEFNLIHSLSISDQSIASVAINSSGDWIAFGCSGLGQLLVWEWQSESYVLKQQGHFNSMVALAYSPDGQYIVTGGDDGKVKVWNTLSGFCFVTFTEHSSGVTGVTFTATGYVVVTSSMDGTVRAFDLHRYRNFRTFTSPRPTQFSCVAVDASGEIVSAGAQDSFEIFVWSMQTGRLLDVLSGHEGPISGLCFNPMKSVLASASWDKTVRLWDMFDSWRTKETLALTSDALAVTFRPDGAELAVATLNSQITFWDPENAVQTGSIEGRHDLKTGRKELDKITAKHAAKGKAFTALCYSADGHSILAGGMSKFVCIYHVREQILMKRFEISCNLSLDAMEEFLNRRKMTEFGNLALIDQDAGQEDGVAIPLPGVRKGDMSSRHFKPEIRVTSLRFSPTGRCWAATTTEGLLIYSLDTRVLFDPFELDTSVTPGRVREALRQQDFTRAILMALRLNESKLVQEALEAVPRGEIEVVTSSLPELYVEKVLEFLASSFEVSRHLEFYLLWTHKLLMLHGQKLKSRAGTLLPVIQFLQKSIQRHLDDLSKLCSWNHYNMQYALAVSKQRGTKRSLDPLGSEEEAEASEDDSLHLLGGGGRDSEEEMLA
UniProt Q1ZZU3: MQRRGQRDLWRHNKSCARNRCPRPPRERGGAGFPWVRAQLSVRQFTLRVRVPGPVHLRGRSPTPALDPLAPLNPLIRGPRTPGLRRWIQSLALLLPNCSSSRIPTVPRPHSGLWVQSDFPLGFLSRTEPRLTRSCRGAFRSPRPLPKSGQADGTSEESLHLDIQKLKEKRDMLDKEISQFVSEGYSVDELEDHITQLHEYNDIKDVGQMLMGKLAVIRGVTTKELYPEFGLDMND
UniProt Q2KHT3: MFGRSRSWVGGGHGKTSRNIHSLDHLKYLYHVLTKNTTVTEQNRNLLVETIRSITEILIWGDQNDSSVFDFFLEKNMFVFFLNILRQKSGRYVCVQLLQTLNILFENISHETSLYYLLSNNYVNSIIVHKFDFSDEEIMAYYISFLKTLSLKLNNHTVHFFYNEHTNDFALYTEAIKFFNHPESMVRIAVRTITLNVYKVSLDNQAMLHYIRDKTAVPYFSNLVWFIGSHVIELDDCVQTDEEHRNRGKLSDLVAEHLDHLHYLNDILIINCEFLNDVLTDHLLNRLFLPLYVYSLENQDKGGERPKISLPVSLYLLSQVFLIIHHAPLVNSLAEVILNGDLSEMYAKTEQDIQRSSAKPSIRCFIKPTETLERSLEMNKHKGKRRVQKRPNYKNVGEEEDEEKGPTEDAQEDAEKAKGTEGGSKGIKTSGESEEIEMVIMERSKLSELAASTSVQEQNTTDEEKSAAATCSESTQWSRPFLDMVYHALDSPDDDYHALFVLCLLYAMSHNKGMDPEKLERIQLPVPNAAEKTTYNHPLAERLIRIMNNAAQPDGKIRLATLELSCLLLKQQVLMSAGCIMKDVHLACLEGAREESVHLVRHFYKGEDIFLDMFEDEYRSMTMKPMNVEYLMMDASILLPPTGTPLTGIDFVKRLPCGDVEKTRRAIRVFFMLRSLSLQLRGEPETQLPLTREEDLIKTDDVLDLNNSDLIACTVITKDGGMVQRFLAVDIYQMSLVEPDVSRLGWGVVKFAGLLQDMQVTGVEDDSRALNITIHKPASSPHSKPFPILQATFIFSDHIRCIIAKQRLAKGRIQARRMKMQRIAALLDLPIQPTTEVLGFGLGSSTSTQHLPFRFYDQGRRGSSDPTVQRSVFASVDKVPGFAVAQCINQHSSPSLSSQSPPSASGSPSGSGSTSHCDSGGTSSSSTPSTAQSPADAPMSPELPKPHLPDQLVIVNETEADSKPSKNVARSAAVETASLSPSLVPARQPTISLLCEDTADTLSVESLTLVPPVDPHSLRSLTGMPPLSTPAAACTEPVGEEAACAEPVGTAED
UniProt Q16342: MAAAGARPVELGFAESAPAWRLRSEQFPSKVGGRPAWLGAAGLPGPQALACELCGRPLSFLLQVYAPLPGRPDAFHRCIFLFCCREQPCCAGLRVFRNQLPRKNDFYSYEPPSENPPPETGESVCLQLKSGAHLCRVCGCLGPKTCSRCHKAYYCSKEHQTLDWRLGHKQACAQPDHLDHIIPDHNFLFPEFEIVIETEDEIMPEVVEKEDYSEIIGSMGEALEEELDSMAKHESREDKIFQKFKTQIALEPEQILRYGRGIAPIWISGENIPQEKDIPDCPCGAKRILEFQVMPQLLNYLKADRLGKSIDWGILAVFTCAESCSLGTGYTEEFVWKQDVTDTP
UniProt Q3MIT2: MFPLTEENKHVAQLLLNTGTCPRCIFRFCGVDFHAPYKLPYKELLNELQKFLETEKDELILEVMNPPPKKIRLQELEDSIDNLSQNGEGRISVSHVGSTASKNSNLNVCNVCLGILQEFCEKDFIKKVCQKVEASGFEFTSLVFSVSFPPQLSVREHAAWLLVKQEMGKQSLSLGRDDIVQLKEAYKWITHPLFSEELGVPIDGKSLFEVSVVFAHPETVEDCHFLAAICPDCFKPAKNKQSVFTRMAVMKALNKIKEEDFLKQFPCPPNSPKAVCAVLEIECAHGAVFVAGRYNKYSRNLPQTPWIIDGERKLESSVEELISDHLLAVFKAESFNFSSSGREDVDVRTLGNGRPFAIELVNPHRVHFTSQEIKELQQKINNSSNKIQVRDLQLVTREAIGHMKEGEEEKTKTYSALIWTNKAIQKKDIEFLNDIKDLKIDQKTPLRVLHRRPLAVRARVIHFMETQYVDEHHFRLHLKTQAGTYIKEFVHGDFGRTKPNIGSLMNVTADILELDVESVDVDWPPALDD

Compound: CN[C@@H]1C[C@H]2O[C@@](C)([C@@H]1OC)n1c3ccccc3c3c4c(c5c6ccccc6n2c5c31)C(=O)NC4 [staurosporine]
Experiment: log2 fold change of tryptic peptide abundance, ligand vs vehicle (limited proteolysis) (log2 ratio); higher = more trypsin-susceptible (destabilized)
Conditions: ligand concentration: 20 uM; sample: K562 cleared lysate; digestion: 4 min, 22 C (HT-PELSA RT4min, Orbitrap Astral)

Target | log2 fold change
UGP2 (peptide sequence: ILTTASSHEFEHTKK, peptide start residue: 39) (UniProt Q16851) | 0.185
TAF7 (peptide sequence: GKLQETQDR, peptide start residue: 290) (UniProt Q15545) | 0.254
UniProt Q15697 (peptide sequence: EIVTLVEDFHR, peptide start residue: 116) | -0.103
TOMM34 (peptide sequence: NRVPSAGDVEK, peptide start residue: 182) (UniProt Q15785) | 0.133
UniProt Q15327 (peptide sequence: QREAELK, peptide start residue: 65) | 0.021
LRRFIP1 (peptide sequence: TSPAAAQSR, peptide start residue: 2) (UniProt Q32MZ4) | -0.202
UniProt Q3KQV3 (peptide sequence: HNKCCESGDAFNNK, peptide start residue: 253) | -0.666
MAPRE1 (peptide sequence: LEHEYIQNFK, peptide start residue: 67) (UniProt Q15691) | 0.447
VMA21 (peptide sequence: AALNALQPPEFR, peptide start residue: 7) (UniProt Q3ZAQ7) | 0.131
ERCC6L (peptide sequence: AQFLVEFESQNK, peptide start residue: 704) (UniProt Q2NKX8) | -0.66
PPP1R7 (peptide sequence: SLETVYLERNPLQKDPQYR, peptide start residue: 322) (UniProt Q15435) | -0.455
WDR43 (peptide sequence: MPLHTIIPLLQELTKR, peptide start residue: 497) (UniProt Q15061) | 0.462
AP5B1 (peptide sequence: LLGTAQLTLLHAMLALK, peptide start residue: 315) (UniProt Q2VPB7) | 0.235
PWP2 (peptide sequence: ELDKITAK, peptide start residue: 593) (UniProt Q15269) | 0.223
TAF1C (peptide sequence: ALLKVPLAPPVWTAPTFTHR, peptide start residue: 642) (UniProt Q15572) | -0.604
LLGL1 (peptide sequence: CLYFADTFLR, peptide start residue: 725) (UniProt Q15334) | -0.182
UniProt Q15286 (peptide sequence: TVEINGEKVK, peptide start residue: 49) | 0.294
SWI5 (peptide sequence: SGQADGTSEESLHLDIQK, peptide start residue: 148) (UniProt Q1ZZU3) | -0.318
SHB (peptide sequence: CAASAAEESGAGK, peptide start residue: 224) (UniProt Q15464) | 1.52
CLEC16A (peptide sequence: GSSDPTVQR, peptide start residue: 862) (UniProt Q2KHT3) | -0.122
CSPP1 (peptide sequence: ERNPMDIFDMAR, peptide start residue: 976) (UniProt Q1MSJ5) | 0.454
PMVK (peptide sequence: RQADPGFFCR, peptide start residue: 84) (UniProt Q15126) | 0.458
RABEP1 (peptide sequence: INAEFLR, peptide start residue: 24) (UniProt Q15276) | -0.292
PDCD2 (peptide sequence: CIFLFCCR, peptide start residue: 78) (UniProt Q16342) | -0.11
PUS10 (peptide sequence: KLESSVEELISDHLLAVFK, peptide start residue: 313) (UniProt Q3MIT2) | 0.266

In a second layout: results already given
TOMM34 (peptide sequence: NRVPSAGDVEK, peptide start residue: 182) (UniProt Q15785)
  log2 fold change: 0.133
UniProt Q15286 (peptide sequence: TVEINGEKVK, peptide start residue: 49)
  log2 fold change: 0.294
